Experimental data published in article PMC11293442.
No constants are given. Whether binding was seen depends on the method and setting. For part of these data: Binding seen in cells or lysates may run through a third protein. Some binding calls cover weakened binding; strength is not graded here. For part of these data: Where a sequence is shown, tags or fusion partners need not be part of it. Each block holds one molecule with its values, some of them ahead of it.

Legend:
[1] = molecular target: T1, native CNTN4 (CNTN4 expression plasmid coding for the native Cntn4 protein) (not stated (rat or mouse cDNA cloned)) (UniProt Q69Z26); test: co-IP; HEK293 cells transfected with the native CNTN4 plasmid or an empty vector; IP with an anti-CNTN4 antibody (normal IgG as control), Western blot for CNTN4 and APP
T1 sequence: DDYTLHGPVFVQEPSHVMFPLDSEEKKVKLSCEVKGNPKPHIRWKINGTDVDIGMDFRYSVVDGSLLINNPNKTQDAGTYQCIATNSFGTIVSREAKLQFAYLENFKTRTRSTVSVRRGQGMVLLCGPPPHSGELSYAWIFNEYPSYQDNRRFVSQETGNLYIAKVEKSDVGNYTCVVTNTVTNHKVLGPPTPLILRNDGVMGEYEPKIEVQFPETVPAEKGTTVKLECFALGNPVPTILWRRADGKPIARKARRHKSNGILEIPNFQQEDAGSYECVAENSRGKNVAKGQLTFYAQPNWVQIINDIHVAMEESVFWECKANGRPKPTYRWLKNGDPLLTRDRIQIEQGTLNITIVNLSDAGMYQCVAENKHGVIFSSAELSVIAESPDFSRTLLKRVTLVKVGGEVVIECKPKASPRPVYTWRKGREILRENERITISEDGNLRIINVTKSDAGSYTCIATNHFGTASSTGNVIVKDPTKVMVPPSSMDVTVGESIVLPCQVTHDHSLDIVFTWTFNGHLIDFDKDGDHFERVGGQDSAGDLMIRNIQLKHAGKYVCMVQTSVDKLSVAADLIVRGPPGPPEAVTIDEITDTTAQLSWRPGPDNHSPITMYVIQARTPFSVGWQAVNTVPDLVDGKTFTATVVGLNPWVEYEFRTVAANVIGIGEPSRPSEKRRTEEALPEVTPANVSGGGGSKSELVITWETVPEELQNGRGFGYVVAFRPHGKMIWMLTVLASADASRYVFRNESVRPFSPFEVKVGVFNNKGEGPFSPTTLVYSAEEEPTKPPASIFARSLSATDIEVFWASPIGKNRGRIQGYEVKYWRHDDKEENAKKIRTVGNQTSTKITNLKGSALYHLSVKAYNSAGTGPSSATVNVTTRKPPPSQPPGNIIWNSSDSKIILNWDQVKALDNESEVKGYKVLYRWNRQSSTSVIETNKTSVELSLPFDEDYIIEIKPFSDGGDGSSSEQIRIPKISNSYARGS

[2] = molecular target: T2, FLAG-mCntn4 (full-length pcDNA3.1-FLAG-mCntn4), on HEK293 cells (mouse (mCntn4)) (UniProt Q69Z26); test: cell adhesion (aggregation) assay; two populations of transfected HEK293 cells (with EGFP or DsRed) mixed 1:1 in suspension medium (10% HIFCS, 50 mM Hepes-NaOH pH 7.4, 10 mM CaCl2, 10 mM MgCl2), room temperature, gentle agitation, 90 min; aggregation index from fluorescence images
T2 sequence: T1 sequence

binding [1]: binds
Molecule: amyloid-beta precursor protein (endogenous in HEK293 cells) (from UniProt P05067 18-770)

binding [2]: binds
Molecule: huAPP695 (pSFV-huAPP695), on HEK293 cells (from UniProt P05067-4 18-695)

binding [2]: binds
B1: FLAG-mCntn4 (full-length pcDNA3.1-FLAG-mCntn4), on HEK293 cells (protein, UniProt Q69Z26 19-1000)
chain: T1 sequence
